Laboratory results taken from patent publication US20250018037A1 (SEOUL NATIONAL UNIVERSITY R AND DB FOUNDATION, published 2025).
No constants are given. Whether binding was seen depends on the method and setting. Some results given as binding are weak or reduced against the parent protein; the word gives no strength. Tags and fused reporters may be left off the sequences shown. Blank lines part the entries; values can stand above or below the binder they belong to.

Protein sequences, listed by entry. Tags and fused reporters are not part of them. Lines headed by an entry give the natural chain unless they say otherwise; changes in a name come on top. Residues count along the entry.
UniProt P25942: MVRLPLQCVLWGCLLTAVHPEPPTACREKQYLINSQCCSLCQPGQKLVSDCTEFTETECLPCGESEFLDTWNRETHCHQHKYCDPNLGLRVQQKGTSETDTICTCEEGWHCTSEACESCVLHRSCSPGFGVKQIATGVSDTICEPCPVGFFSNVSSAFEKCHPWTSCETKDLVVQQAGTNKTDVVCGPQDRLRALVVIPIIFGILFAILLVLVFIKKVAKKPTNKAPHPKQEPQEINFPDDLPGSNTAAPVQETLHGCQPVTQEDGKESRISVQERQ
Recombinant human CD40-Fc (1493-CDB, R&D systems): residues 21-193 of P25942

Tests used:
[1] = biological target: T1, Human CD40 on cells (Raji, Daudi, IM-9) (human, UniProt P25942 21-277); experiment: flow cytometry on Raji cells (FIG. 13B)
T1 construct: whole, on cells; also called cell surface CD40; hCD40

[2] = biological target: Recombinant human CD40-Fc (1493-CDB, R&D systems) (human) (UniProt P25942); experiment: ELISA on coated human CD40-Fc (FIG. 13A)
[3] = biological target: T1, Human CD40 on cells (Raji, Daudi, IM-9); experiment: flow cytometry on Raji cells, detection with anti-human Ck-APC
[4] = biological target: Recombinant human CD40-Fc (1493-CDB, R&D systems) (human) (UniProt P25942); experiment: ELISA on coated human CD40-Fc, detection with anti-human Cκ-HRP
[5] = biological target: Recombinant human CD40-Fc (1493-CDB, R&D systems) (human) (UniProt P25942); experiment: ELISA, human CD40-Fc coated at 2.5 µg/ml, detection with anti-human Cκ-HRP
[6] = biological target: Mouse CD40 on cells (A20 lymphoma cells, EL4-mCD40 cells, peritoneal macrophages, splenic dendritic cells) (mouse) (UniProt P27512); experiment: flow cytometry on A20 cells (FIG. 8B)
[7] = biological target: T2, Recombinant mouse CD40-Fc (1215-CD, R&D systems) (mouse) (UniProt P27512); experiment: ELISA on coated mouse CD40-Fc (FIG. 8A)
T2 sequence (looked up): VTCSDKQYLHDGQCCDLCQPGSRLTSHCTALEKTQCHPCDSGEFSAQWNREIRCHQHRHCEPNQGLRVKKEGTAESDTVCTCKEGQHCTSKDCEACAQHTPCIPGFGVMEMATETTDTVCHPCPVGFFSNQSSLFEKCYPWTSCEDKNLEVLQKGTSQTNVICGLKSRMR

[8] = biological target: Mouse CD40 on cells (A20 lymphoma cells, EL4-mCD40 cells, peritoneal macrophages, splenic dendritic cells) (mouse) (UniProt P27512); experiment: flow cytometry on A20 cells, detection with anti-human Cκ-APC
[9] = biological target: T2, Recombinant mouse CD40-Fc (1215-CD, R&D systems) (mouse); experiment: ELISA on coated mouse CD40-Fc, detection with anti-human Cκ-HRP
[10] = biological target: T2, Recombinant mouse CD40-Fc (1215-CD, R&D systems) (mouse); experiment: ELISA, mouse CD40-Fc coated at 2.5 µg/ml, detection with anti-human Cκ-HRP

binding [1]: binds
binding [2]: binds
binding [3]: binds
binding [4]: binds
binding [5]: binds
B1: 2E1-Cκ (anti-human CD40 scFv clone 2E1 fused with human Cκ) (scFv)
scFv: QAALTQPSSVSANPGETVKITCSGSSSSYYGWYQQKAPGSAPVTLIYANDKRPSDIPSRFSGSKSGSTHTLTITGVQADDEAVYFCGSADSTDSGFGAGTTLTVLGQSSRSSGGGGSSGGGGSAVTLDESGGGLQTPGGALSLVCKASGFSFSSYSMHWVRQAPGKGLEFVAAISSDGSRYTHYGPAVKGRATISRDNGQSTVRLQLNNLRPEDTGTYYCAKTSNTWTWNTGWIDAWGHGTEVIVSSTSGQAGQRTVAAPSVFIFPPSDEQLKSGTASVVCLLNNFYPREAKVQWKVDNALQSGNSQESVTEQDSKDSTYSLSSTLTLSKADYEKHKVYACEVTHQGLSSPVTKSFNRGES
notes: also called 2E1-Ck

binding [6]: binds
binding [7]: binds
binding [8]: binds
binding [9]: binds
binding [10]: binds
B2: C1C02-Cκ (anti-mouse CD40 scFv clone C1C02 fused with human immunoglobulin kappa light chain constant region) (scFv)
scFv: QAALTQPSSVSANPGETVKITCSGGSSNYGWYQQKSPGSAPATVIYDNTNRPSDIPSRFSGALSGSTATLTITGVQVEDEAVYYCGGYDSGTYAGIFGAGTTLTVLGQSSRSSGGGGSSGGGGSAVTLDESGGGLQTPGGTLSLACKGSGFTFSSVNMQWVRQAPGKGLEWVAGISSDGSYTAYGAAVKGRATISRDNGQSTVRLQLNNLRAEDTAIYYCAKIAGGYYWDAAYSIDMWGHGTEVIVSSTSGQAGQRTVAAPSVFIFPPSDEQLKSGTASVVCLLNNFYPREAKVQWKVDNALQSGNSQESVTEQDSKDSTYSLSSTLTLSKADYEKHKVYACEVTHQGLSSPVTKSFNRGES
notes: also called C1C02 scFv; anti-mouse CD40 antibody (clone C1C02)

binding [1]: binds
binding [2]: binds
binding [3]: binds
binding [4]: binds
binding [5]: binds
B3: 2B1-Cκ (anti-human CD40 scFv clone 2B1 fused with human Cκ) (scFv)
scFv: QAALTQPSSVSANPGETVKITCSGGDSYAGSYYYGWFQQKAPGSAPVTVIYYNDKRPSDIPSRFSGSTSGSTSTLTITGVQAEDEAVYYCGSIDTSSGTGIFGAGTTLTVLGQSSRSSGGGGSSGGGGSAVTLDESGGGLQTPGGALSLVCKGSGFTFSSYQMFWVRQAPGKGLEYVAEISGSGLSTWYAPAVKGRATISRDNGQSTVRLQLNNLRAEDTGTYYCAKAAGSCGVGTCAGGIVDGIDAWGHGTEVIVSSTSGQAGQRTVAAPSVFIFPPSDEQLKSGTASVVCLLNNFYPREAKVQWKVDNALQSGNSQESVTEQDSKDSTYSLSSTLTLSKADYEKHKVYACEVTHQGLSSPVTKSFNRGES
notes: also called 2B1-Ck; free 2B1
